Results: paper PMC9748336
No constants are given. Whether binding was seen depends on the method and setting. In cells and extracts the contact can be indirect. Some binding calls cover weakened binding; strength is not graded here. For some of these results: Sequences can lack the tags named with a protein.

Amino acid sequences for entries named in this document (tags omitted). A change or cut given only in a name is not applied to a line headed by its entry. Chains listed by the source or under a name are the forms on record and can include a tag or linker.
UniProt Q15172: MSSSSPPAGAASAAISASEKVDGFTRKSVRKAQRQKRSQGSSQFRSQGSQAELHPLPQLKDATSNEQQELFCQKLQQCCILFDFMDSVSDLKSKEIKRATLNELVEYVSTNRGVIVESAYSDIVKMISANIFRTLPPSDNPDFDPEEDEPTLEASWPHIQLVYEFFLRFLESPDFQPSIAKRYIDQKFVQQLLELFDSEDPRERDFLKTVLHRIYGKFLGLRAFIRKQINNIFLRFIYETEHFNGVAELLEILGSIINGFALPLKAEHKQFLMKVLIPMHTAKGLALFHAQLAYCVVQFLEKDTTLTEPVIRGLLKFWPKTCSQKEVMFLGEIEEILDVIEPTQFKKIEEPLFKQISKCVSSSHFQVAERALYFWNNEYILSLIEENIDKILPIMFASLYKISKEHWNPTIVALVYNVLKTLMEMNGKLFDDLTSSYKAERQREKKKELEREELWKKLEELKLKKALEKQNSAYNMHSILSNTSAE
UniProt Q15173: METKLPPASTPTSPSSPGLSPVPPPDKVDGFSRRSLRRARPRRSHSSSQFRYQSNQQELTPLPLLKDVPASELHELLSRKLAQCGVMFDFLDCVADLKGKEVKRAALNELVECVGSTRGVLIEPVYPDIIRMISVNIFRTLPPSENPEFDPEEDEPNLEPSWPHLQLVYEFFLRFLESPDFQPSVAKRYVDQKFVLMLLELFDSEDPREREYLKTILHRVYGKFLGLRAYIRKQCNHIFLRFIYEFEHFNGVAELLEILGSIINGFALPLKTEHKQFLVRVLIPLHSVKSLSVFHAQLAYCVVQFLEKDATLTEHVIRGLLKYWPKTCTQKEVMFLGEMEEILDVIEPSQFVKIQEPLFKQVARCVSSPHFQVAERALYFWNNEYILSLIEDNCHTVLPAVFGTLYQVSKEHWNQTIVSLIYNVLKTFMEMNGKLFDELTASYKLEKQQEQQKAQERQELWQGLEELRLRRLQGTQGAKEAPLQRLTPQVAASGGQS
UniProt Q16537: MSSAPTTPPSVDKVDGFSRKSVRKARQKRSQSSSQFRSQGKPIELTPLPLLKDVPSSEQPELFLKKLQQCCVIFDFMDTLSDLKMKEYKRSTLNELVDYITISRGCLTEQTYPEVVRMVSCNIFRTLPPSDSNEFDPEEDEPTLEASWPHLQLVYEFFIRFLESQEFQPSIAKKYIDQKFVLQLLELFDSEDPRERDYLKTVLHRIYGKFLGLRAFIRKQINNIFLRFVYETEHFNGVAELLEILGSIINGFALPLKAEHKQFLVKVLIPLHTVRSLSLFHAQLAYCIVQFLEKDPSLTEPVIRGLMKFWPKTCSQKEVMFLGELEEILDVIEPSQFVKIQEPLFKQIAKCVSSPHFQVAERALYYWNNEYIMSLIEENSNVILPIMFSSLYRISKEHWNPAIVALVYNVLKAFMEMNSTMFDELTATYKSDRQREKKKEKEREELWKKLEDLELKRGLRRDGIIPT
UniProt P67775: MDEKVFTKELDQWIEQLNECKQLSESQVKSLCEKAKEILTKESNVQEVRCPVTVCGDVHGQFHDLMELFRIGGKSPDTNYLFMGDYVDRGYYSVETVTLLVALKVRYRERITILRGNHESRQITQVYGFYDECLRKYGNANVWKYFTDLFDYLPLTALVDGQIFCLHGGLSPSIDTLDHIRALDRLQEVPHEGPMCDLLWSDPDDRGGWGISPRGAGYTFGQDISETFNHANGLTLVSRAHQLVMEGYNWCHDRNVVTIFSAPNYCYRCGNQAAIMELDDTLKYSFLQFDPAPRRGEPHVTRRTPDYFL
HA-tagged PP2A catalytic Cα subunit p.Cys196Arg variant (P67775, form named): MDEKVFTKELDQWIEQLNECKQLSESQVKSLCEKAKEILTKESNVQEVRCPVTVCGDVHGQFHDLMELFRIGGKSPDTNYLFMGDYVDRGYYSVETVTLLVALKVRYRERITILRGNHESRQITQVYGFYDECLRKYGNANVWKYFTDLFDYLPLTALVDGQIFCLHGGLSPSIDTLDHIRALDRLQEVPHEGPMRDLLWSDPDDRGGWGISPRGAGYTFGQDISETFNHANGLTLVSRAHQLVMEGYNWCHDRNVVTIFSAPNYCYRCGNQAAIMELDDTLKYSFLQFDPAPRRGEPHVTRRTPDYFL

Tests used:
Experiment in all cases: co-IP; GFP pulldown: lysates of HEK293T cells co-expressing GFP-tagged B-type subunit and HA-Cα incubated 1 h at 4°C with GFP-trap-A beads in NENT100 buffer with 1 mg/ml BSA; washes with 300 and 150 mM NaCl; HA-Cα detected by anti-HA immunoblot, quantified against the anti-GFP signal, WT set at 100%; no phosphatase inhibitors for GFP-STRN3
[1] = target: T1, GFP-tagged PP2A regulatory B”’/STRN3 subunit (UniProt Q13033)
T1 sequence: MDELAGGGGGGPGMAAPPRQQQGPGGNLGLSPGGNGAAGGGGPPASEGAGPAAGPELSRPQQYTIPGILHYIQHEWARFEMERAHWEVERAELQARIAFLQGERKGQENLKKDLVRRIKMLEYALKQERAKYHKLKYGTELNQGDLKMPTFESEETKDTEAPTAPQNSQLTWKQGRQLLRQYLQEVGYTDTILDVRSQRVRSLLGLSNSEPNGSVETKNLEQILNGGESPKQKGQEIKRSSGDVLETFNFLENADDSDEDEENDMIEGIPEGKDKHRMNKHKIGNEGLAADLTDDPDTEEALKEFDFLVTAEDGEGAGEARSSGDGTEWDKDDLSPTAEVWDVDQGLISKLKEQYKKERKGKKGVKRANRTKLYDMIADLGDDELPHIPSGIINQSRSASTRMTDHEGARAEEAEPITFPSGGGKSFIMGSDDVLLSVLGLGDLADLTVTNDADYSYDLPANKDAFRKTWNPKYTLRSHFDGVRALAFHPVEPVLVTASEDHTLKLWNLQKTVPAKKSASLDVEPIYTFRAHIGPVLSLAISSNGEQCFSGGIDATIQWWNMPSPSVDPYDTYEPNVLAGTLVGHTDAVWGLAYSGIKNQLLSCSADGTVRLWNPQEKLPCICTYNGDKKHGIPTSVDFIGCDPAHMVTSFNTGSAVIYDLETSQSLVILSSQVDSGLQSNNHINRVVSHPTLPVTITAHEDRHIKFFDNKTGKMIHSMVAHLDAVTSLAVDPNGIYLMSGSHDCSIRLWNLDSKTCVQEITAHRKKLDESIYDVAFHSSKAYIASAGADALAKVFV

[2] = target: T2, GFP-tagged PP2A regulatory B55α subunit (UniProt P63151)
T2 sequence: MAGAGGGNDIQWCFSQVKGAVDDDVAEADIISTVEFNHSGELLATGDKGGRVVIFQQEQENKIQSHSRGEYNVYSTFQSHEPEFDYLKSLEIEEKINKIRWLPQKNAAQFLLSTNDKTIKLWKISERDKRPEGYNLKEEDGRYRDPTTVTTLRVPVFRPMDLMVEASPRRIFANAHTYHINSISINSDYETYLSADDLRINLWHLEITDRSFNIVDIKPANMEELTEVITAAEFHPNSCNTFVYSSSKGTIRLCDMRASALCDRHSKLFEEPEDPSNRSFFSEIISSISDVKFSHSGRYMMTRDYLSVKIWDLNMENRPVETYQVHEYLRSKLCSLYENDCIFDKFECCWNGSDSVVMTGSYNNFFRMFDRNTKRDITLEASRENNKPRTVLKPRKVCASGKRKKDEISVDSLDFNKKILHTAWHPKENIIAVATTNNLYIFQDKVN

[3] = target: GFP-tagged PP2A regulatory B56α subunit (UniProt Q15172)
[4] = target: GFP-tagged PP2A regulatory B56β subunit (UniProt Q15173)
[5] = target: GFP-tagged PP2A regulatory B56ε subunit (UniProt Q16537)
[6] = target: T3, GFP-tagged PP2A regulatory B”/PR72 subunit (UniProt Q06190)
T3 sequence: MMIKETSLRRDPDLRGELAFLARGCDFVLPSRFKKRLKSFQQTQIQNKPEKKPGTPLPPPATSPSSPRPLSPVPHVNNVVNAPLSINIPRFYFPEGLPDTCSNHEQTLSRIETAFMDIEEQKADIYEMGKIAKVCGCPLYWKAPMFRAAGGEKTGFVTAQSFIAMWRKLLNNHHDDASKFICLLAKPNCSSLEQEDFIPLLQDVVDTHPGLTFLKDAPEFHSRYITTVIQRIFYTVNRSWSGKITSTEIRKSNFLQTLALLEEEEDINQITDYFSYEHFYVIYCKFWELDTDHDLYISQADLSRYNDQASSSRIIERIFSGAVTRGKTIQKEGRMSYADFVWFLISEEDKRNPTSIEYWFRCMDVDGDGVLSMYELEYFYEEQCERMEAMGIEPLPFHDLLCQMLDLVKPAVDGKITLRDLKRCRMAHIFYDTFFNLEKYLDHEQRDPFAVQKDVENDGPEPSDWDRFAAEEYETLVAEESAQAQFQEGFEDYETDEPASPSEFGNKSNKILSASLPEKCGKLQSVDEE

Measured: binding

HA-tagged PP2A catalytic Cα subunit p.Cys196Arg variant (from UniProt P67775 1-309) (enzyme)
binds: [1]

HA-tagged wild-type PP2A catalytic Cα subunit (from UniProt P67775 1-309) (enzyme)
binds: [2] | [3] | [4] | [5] | [6] | [1]
